The source of these data is US20240301031A1.

The target in the test is cynomolgus monkey BAFF (BAF-CM412B, Kactus) (cynomolgus monkey). The test is described as follows: SPR (Biacore).

These are yes or no findings as the source states them, for the method shown. Some results given as binding are weak or reduced against the parent protein; the word gives no strength.

On to TACI-Mab1 (from UniProt P0DOX7 1-214), for which the binding entry is “binds”.
